This note sets out measurements from the M2OR odorant receptor database.

Chains of the proteins cited; added tags and fusions are not shown. Chains listed by the source or under a name are the forms on record and can include a tag or linker.
O11H2, as listed by the source: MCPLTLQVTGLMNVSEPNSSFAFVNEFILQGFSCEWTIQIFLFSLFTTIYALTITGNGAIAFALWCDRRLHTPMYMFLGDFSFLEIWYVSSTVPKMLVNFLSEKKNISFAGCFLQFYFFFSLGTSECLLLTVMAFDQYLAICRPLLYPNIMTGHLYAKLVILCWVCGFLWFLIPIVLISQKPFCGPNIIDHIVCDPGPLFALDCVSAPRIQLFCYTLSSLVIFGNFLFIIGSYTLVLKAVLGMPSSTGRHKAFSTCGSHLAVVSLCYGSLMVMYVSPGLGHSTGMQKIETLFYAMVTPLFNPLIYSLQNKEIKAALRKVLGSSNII

What all share (conditions): stereoisomer not certain
One experiment has as its system T1, O10J3.
T1 sequence (whole entry): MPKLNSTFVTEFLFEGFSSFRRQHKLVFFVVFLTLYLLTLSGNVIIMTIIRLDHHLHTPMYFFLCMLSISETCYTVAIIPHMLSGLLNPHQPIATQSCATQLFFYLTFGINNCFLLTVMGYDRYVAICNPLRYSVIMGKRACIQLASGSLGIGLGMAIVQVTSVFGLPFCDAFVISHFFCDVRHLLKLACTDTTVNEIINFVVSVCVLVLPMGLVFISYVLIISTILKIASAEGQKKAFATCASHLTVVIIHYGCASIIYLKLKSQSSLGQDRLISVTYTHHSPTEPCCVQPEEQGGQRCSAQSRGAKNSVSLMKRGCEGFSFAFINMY
Summed up:
(§1)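 Each entry records the cell line, G-protein, co-transfected protein and tags used. Methods varied with the source, often transient luciferase assays in mammalian cell lines. A receptor–molecule pair is called responsive (active) if the original authors judged its signal statistically different from baseline and non-responsive (inactive) otherwise.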

The test system of another experiment is T2, O10J5.
T2 sequence (whole entry): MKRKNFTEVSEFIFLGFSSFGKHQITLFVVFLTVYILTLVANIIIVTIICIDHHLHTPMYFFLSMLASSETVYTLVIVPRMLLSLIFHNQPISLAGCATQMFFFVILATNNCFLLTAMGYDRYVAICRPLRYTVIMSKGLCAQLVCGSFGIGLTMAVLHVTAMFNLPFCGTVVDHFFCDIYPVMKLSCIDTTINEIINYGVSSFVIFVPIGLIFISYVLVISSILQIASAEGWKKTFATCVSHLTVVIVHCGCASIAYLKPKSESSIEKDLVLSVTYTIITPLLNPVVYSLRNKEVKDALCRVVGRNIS
Summed up: as §1

A further experiment relates to T3, O10P1.
T3 sequence (whole entry): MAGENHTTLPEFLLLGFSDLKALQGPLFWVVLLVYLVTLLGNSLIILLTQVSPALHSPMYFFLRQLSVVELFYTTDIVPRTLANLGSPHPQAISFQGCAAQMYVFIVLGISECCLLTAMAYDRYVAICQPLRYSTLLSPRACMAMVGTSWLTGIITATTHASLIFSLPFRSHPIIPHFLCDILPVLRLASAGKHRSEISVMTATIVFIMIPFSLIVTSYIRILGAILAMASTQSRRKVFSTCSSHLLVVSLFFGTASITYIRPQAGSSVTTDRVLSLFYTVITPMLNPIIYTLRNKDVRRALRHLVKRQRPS
In short, it runs like this:
as §1

In a further experiment the test system is T4, O10Q1.
T4 sequence (whole entry): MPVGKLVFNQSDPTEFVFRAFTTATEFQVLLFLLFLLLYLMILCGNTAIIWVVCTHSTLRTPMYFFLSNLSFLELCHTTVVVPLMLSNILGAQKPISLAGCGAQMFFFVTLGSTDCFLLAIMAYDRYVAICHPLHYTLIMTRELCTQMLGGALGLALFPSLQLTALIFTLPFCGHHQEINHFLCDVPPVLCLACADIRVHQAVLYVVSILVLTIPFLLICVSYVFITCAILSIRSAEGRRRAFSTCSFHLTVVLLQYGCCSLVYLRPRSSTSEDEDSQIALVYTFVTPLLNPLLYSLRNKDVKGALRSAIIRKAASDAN
Summed up: as §1

Experiment [1] relates to T5, O10R2.
T5 sequence (whole entry): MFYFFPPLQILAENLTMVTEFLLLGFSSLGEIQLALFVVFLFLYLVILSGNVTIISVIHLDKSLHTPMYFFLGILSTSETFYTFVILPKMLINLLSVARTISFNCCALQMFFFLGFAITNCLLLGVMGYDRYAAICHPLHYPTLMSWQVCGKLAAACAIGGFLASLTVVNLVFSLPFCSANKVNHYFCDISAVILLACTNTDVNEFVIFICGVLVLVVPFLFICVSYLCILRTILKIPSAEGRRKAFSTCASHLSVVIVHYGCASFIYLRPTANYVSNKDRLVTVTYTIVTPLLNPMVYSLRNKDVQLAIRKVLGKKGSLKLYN
Summed up:
as §1

Experiment [2] has as its system T6, O10R2.
T6 sequence (whole entry): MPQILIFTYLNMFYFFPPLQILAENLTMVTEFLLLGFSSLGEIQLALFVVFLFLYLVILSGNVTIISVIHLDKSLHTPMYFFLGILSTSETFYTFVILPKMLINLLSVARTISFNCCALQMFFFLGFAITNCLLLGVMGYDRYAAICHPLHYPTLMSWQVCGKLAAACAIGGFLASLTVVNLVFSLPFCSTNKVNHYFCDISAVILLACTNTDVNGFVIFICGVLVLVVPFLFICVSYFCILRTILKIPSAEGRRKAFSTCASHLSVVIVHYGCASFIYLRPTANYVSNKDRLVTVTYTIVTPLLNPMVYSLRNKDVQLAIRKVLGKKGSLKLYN
In short, it runs like this:
as §1
The source holds these as a separate data set.

Another experiment deals with T7, O10V1.
T7 sequence (whole entry): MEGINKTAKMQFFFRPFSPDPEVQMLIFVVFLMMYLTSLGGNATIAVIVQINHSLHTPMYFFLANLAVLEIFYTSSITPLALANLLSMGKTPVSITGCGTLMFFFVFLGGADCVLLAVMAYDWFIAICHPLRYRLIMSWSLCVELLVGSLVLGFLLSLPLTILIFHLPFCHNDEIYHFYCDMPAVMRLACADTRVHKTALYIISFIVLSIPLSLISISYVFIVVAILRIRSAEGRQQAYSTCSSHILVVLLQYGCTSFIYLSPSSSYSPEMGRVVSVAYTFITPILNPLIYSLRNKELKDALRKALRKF
Summed up: as §1

The test system of the next experiment is T8, O10W1.
T8 sequence (whole entry): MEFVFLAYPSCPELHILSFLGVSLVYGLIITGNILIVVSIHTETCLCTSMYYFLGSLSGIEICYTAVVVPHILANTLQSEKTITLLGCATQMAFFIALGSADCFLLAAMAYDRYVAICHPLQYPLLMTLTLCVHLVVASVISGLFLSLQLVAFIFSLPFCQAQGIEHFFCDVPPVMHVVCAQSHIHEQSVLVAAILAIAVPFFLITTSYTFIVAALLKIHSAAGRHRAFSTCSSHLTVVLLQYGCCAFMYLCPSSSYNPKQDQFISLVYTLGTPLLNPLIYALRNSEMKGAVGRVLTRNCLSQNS
In short, it runs like this:
as §1

The subject of a further experiment is T9, O10X1.
T9 sequence (whole entry): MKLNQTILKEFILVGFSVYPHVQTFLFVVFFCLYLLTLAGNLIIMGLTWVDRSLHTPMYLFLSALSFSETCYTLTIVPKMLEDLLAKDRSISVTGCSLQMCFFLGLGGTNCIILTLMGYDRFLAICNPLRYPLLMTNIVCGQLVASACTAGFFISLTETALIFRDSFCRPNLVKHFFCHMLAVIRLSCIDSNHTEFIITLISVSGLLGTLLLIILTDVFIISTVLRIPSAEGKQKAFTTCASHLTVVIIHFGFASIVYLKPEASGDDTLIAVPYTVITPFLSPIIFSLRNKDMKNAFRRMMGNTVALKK
In short, it runs like this: as §1

The subject of the next experiment is T10, O11G2.
T10 sequence (whole entry): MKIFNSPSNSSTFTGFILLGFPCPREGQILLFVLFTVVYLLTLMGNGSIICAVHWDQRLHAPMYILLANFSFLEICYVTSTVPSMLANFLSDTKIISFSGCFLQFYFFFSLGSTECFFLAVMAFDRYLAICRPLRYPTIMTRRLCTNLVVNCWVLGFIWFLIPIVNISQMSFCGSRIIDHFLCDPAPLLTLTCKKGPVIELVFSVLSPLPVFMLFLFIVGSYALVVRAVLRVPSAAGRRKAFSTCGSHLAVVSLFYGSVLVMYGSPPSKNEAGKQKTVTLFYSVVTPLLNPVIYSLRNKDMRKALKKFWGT
In short, it runs like this: as §1

The subject of experiment [3] is T11, O11H1.
T11 sequence (whole entry): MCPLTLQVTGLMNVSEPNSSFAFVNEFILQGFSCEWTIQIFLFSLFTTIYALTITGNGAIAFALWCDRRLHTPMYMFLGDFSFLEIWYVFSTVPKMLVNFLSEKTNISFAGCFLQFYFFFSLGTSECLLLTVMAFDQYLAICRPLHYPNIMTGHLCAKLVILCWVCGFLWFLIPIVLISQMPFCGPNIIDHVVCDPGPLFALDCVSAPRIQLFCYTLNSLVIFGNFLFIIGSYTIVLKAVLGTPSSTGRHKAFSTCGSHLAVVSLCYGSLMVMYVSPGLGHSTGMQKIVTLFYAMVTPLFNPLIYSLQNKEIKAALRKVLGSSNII
In short, it runs like this:
as §1

Experiment [4] has as its system T12, O11H1.
T12 sequence (whole entry): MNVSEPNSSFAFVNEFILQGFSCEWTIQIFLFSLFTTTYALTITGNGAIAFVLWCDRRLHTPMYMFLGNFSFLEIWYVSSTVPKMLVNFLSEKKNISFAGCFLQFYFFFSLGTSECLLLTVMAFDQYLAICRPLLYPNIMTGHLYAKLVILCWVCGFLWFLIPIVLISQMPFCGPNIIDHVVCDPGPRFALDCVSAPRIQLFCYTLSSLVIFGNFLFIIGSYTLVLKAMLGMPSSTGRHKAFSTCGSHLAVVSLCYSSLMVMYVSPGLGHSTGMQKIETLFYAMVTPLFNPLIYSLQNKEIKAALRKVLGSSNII
In short, it runs like this: as §1
This is another data set of the same source.

The next experiment has as its system T13, O11H2.
T13 sequence (whole entry): T11 sequence (whole entry) with F90S, T105K, H146L, C156Y, M181K, V192I, N218S, I235L, T243M, V289E
Summed up:
as §1

Another experiment relates to T14, O11H4.
T14 sequence (whole entry): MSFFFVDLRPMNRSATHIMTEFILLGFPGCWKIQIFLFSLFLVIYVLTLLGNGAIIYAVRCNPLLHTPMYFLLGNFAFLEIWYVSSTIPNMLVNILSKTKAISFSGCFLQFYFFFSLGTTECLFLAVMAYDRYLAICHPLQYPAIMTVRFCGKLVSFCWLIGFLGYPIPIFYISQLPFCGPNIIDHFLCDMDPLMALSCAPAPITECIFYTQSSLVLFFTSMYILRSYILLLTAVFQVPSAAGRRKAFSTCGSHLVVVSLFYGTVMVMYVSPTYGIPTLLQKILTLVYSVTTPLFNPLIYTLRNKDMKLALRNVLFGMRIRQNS
Summed up:
as §1

Another experiment relates to T15, O11L1.
T15 sequence (whole entry): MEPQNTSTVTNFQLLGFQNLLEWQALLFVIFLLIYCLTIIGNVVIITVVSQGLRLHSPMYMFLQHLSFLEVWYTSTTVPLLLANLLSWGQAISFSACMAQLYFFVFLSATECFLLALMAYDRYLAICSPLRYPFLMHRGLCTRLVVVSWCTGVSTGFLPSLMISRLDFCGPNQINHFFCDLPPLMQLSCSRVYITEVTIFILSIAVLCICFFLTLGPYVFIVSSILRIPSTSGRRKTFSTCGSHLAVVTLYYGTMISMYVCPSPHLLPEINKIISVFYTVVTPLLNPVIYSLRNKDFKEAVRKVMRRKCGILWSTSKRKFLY
In short, it runs like this: as §1

In the next experiment the test system is T16, O12D2.
T16 sequence (whole entry): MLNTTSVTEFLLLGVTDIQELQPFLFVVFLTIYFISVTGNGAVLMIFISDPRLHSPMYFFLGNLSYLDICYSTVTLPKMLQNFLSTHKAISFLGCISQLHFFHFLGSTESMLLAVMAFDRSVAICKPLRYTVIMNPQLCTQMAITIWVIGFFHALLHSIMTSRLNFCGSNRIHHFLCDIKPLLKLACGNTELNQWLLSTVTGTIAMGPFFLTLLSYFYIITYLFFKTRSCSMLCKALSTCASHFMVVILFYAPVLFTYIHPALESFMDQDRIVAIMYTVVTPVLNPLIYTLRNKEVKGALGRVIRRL
Summed up:
as §1

In a further experiment the test system is T17, O13C3.
T17 sequence (whole entry): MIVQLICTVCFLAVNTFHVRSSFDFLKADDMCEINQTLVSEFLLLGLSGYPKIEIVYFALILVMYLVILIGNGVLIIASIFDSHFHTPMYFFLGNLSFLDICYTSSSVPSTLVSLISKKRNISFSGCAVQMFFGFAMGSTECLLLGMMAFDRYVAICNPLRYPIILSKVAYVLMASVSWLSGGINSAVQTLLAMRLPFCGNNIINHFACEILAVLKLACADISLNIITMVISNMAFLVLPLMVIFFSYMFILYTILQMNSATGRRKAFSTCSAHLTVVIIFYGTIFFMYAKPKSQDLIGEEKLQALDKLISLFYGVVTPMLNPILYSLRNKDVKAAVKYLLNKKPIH
Summed up:
as §1

Positions count from the first letter of the chain named. Some of the results follow. The calls were merged from several studies; some rest on single wells.

On to `CC1COCc2cc3c(cc21)C(C)(C)C(C)C3(C)C` (centres undefined), for which the “odorant receptor agonist call” value in the experiment on O10J3 and with O10V1 was “inactive” throughout. The “odorant receptor agonist call” value in the experiment with O10J5, with O10P1, with O10Q1, in the experiment on O10R2 [1], with O10R2 [2] and in the experiment with O10W1 was “active” each time. The “odorant receptor agonist call” value in the experiment with O10X1, with O11G2, in the experiment on O11H1 [3], with O11H1 [4], with O11H2 and in the experiment with O11H4 was “active” throughout. Besides, the “odorant receptor agonist call” value in the experiment with O11L1, in the experiment with O12D2 and in the experiment with O13C3 was “active” in each case.

Regarding `CC12C=CCC1C1CCC3=CC(=O)CCC3(C)C1CC2` (centres undefined), the “odorant receptor agonist call” value with O10J3, in the experiment on O10J5, in the experiment with O10P1, in the experiment with O10Q1, in the experiment with O10R2 [1] and in the experiment with O10R2 [2] was “inactive” each time. For the same molecule, the “odorant receptor agonist call” value in the experiment with O10V1, in the experiment with O10W1, in the experiment on O10X1, in the experiment on O11G2, with O11H1 [3] and with O11H1 [4] was “inactive” each time. Further, the “odorant receptor agonist call” value in the experiment on O11H2, in the experiment with O11H4, in the experiment with O11L1, in the experiment with O12D2 and with O13C3 was “inactive” each time.
